No constants are given. Whether binding was seen depends on the method and setting. Some entries that bind do so weakly or less than the wild type. Sequences can lack the tags named with a protein.
Molecular target: FLAG-tagged nucleolin (UniProt P19338)
Experiment: pull-down; FLAG-tagged nucleolin expressed in HeLa cells, precipitated from cell extracts by FLAG antibody and incubated with isolated GST or GST fusion proteins; FLAG and GST specific immunoblot; both purified

Amino acid sequences for entries named in this document (tags omitted).
UniProt P19338: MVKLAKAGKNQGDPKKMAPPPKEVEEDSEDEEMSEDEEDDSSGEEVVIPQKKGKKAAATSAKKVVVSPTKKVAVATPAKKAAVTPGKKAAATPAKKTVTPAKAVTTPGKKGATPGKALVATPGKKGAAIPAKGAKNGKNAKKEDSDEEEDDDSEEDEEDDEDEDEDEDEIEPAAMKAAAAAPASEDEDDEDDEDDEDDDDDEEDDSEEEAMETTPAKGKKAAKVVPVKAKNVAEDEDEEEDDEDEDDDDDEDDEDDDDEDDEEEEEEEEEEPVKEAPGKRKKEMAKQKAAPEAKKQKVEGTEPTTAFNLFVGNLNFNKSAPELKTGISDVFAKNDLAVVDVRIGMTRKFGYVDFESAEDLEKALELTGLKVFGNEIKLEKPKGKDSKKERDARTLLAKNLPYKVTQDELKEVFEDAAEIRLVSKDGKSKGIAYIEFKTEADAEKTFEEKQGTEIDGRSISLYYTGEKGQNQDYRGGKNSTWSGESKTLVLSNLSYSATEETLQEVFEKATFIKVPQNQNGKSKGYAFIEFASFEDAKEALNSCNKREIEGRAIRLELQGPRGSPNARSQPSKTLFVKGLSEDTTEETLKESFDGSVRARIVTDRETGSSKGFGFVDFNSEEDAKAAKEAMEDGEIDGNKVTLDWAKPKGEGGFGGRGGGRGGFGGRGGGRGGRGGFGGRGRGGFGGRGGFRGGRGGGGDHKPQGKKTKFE

- binding: binds
B1: GST-C20orf204-189AA (protein, UniProt A0A1B0GTL2 24-189)
chain: YSPACSVPDVLRHYRAIIFEDLQAAVKWGGAGAEKTRPGSRHFHFIQKNLTRPGSSGRRGRPRASCGAQKEHSILLSISSLGRTLRGAVAGGRRGALERAAWTVAVRTEAVMRRHCRTLRQRSRRPKMRPARRRGGRRQLLLRALDAVATCWEKLFALRAPASRDS

Reference: publication PMC7969625
